± gives the standard deviation of the averaged measurements. The list shows a part of the results, in another mix than the full data.
Compound: Nc1ncnc2c1ncn2[C@@H]1O[C@H](COP(=O)(O)OP(=O)(O)OP(=O)(O)O)[C@@H](O)[C@H]1O [adenosine triphosphate]
Assay: NP40-soluble protein abundance relative to vehicle (solubility fold change) (ratio); higher = more soluble protein in presence of ATP
How it was run: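 Jurkat crude lysate prepared with a Dounce homogeniser was treated at eight concentrations spanning 0.1 to 10 mM, 10 min at room temperature then 3 min at 37 °C. Solubilisation with 0.8% NP40 and benzonase and ultracentrifugation preceded TMT labelling of the supernatant for LC-MS/MS. Fold change against the detergent-processed vehicle was determined per replicate from vsn-normalised intensities, across three independent experiments.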

Amino acid sequences for entries named in this document (tags omitted). A change or cut given only in a name is not applied to a line headed by its entry.
UniProt Q96MY1: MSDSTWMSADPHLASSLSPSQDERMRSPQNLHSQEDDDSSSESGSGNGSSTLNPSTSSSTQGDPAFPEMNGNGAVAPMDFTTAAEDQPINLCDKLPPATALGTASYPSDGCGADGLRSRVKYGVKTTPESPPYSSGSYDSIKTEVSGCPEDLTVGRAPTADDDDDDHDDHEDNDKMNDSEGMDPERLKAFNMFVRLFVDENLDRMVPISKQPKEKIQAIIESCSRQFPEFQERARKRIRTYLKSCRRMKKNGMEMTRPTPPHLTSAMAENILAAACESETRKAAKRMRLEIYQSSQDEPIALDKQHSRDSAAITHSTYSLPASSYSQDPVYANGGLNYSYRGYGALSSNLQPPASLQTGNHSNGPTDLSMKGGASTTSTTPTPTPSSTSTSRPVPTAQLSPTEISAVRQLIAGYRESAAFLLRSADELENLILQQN
UniProt Q15651: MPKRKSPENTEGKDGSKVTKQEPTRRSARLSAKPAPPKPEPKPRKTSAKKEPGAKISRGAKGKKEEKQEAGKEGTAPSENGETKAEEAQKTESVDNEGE
UniProt Q9NR56: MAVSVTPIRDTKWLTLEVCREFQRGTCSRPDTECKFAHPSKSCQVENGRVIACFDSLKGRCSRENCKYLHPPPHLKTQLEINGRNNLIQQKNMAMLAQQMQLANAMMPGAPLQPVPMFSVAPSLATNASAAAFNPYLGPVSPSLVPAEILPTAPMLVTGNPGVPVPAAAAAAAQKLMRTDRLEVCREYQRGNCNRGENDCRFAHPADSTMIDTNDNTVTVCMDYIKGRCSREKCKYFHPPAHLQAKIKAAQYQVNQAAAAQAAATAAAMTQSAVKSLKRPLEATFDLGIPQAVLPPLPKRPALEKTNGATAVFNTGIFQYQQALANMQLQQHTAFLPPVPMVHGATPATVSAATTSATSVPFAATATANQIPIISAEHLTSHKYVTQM
UniProt Q96AP0: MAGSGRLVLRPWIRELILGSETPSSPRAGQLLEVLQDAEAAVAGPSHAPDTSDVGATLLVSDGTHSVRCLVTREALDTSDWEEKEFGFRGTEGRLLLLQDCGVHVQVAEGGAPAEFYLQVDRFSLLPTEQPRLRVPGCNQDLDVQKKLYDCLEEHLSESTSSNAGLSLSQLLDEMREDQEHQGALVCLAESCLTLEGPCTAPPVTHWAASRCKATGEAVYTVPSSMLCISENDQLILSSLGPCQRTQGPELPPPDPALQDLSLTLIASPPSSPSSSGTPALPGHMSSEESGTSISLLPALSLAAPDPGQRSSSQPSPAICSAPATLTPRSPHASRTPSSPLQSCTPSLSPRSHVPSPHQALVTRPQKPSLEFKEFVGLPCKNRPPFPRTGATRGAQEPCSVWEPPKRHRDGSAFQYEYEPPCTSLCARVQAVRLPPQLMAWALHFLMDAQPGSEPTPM
UniProt P04179: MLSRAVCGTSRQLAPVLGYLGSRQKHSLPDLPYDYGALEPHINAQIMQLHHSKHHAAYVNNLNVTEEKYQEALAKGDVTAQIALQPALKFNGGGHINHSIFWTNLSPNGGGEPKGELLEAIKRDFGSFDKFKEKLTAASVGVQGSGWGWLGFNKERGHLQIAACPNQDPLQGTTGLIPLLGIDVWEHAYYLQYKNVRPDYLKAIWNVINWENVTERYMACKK
UniProt Q9NVU0: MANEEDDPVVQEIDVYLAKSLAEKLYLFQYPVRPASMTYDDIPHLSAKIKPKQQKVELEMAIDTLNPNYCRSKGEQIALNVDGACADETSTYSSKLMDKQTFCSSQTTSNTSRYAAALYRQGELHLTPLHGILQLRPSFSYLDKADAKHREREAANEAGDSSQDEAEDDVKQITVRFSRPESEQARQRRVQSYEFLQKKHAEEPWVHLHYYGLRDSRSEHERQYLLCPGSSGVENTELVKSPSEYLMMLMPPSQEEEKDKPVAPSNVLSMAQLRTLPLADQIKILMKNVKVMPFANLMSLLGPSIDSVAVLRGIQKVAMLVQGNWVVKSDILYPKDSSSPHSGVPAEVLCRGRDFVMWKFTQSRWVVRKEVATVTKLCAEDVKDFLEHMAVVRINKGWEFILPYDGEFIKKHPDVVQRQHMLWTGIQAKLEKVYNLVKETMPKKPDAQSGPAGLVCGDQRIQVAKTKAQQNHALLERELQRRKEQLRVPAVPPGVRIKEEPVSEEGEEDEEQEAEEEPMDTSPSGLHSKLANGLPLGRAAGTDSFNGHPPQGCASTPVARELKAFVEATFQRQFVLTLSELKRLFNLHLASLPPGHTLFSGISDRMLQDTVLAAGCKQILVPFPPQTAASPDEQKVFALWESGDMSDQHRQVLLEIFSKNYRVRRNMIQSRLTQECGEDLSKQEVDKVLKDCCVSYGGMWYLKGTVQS
UniProt Q5JTV8: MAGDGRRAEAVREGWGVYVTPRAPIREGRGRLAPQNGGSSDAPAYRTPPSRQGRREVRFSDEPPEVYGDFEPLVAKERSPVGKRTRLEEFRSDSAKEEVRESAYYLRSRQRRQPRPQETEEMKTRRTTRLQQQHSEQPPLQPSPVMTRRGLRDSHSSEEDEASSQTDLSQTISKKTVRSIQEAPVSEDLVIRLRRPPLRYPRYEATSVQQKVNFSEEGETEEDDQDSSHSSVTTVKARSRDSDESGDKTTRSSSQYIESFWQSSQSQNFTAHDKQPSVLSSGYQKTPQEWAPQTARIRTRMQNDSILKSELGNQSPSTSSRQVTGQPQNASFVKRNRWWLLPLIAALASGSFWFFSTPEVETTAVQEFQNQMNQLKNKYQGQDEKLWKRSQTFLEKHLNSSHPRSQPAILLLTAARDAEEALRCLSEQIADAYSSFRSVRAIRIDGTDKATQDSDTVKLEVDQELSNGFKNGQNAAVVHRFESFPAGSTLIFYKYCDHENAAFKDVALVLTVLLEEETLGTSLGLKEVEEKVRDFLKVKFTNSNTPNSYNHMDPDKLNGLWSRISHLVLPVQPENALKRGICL
UniProt Q5T1M5: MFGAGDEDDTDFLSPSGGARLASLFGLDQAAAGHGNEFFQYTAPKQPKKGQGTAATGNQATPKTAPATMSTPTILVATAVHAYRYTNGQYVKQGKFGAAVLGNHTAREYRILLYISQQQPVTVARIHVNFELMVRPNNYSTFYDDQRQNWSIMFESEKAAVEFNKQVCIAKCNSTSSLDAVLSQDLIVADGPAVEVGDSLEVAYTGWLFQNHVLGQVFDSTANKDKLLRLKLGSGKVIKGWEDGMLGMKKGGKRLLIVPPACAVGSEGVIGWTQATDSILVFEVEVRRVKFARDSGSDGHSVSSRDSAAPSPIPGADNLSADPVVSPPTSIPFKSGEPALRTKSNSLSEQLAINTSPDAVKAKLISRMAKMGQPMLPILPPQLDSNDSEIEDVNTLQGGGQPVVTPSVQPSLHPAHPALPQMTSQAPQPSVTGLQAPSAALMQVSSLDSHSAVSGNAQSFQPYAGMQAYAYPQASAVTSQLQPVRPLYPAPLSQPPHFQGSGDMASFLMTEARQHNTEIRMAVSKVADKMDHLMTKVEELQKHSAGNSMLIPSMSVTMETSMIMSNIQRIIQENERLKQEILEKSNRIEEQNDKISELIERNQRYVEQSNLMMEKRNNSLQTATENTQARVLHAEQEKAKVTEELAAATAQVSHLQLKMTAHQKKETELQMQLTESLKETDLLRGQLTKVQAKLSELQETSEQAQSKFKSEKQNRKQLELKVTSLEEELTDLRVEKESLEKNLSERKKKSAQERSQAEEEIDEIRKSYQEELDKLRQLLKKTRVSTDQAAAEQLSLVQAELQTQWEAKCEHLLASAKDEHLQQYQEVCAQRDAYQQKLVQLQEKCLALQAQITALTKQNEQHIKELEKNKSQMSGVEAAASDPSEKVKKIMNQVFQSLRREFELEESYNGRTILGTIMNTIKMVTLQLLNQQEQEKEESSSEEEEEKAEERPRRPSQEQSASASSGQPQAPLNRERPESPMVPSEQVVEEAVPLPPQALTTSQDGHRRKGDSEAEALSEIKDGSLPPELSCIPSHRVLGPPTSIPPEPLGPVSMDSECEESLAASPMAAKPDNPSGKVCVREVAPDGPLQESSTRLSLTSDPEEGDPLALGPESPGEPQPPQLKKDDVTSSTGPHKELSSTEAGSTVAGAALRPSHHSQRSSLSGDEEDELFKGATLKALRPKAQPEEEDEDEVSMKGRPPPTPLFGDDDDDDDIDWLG
UniProt Q8WYA6: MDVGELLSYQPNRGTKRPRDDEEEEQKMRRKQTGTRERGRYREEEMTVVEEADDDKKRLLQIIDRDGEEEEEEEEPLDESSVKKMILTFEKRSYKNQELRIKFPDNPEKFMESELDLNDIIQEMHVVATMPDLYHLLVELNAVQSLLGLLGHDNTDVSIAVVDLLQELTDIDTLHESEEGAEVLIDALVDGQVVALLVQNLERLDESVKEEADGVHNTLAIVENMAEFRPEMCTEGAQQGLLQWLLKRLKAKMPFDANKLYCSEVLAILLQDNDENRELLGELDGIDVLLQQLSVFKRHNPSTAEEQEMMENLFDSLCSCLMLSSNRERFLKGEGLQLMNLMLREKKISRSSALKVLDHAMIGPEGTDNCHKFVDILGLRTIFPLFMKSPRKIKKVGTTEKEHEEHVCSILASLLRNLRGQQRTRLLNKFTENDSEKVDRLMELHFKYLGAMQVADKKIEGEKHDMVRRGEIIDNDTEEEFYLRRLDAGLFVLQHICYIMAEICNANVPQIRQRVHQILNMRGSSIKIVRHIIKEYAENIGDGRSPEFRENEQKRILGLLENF
UniProt P01850: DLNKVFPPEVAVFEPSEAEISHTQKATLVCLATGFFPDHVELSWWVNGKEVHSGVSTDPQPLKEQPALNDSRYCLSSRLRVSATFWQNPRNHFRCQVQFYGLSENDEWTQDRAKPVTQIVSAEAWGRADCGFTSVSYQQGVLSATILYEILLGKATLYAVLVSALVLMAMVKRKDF
UniProt Q8IXK0: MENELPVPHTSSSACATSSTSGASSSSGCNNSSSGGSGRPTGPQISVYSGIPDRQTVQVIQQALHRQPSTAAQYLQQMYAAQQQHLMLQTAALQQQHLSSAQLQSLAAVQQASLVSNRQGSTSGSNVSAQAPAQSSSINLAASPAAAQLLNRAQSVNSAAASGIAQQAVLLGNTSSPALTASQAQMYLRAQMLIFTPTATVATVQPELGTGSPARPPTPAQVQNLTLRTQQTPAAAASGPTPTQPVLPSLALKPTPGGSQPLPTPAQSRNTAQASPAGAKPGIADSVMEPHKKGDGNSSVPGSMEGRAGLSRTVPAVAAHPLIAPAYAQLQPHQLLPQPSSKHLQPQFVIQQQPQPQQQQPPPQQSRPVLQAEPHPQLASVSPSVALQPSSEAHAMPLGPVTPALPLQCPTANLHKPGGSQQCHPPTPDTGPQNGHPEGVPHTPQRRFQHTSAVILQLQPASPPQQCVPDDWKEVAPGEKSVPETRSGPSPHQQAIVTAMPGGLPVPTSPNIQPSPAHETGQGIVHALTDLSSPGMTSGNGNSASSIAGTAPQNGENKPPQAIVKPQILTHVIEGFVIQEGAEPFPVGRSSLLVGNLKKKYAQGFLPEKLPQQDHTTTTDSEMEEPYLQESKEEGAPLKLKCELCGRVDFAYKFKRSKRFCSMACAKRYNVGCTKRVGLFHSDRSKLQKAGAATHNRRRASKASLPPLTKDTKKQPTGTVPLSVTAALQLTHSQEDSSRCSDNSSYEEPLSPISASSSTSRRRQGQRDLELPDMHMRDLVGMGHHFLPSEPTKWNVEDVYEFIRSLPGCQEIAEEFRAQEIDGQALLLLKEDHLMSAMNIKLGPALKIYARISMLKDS
UniProt O00303, whole entry: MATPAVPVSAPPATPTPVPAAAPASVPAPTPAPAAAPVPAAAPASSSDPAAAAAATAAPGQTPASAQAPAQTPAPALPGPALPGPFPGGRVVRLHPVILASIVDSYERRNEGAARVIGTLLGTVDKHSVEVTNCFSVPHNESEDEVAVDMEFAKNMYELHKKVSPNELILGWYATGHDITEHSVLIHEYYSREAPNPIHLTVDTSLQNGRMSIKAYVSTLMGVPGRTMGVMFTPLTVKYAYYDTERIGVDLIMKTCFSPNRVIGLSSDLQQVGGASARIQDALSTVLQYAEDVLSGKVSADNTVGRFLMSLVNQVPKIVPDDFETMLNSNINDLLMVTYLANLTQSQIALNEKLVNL
UniProt O43837: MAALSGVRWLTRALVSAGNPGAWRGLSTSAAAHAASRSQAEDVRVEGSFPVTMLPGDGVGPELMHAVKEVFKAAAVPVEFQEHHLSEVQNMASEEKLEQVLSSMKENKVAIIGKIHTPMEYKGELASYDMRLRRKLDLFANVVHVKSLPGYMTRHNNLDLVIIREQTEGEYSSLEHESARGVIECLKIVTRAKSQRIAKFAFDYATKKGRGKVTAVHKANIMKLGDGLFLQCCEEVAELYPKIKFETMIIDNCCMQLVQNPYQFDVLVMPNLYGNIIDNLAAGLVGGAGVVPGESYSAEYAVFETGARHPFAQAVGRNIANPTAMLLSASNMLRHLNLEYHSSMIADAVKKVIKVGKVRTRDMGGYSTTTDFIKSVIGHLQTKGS

Target	NP40-soluble protein abundance (concentration: 1mM)	NP40-soluble protein abundance (concentration: 2mM)	NP40-soluble protein abundance (concentration: 4mM)	NP40-soluble protein abundance (concentration: 6mM)	NP40-soluble protein abundance (concentration: 8mM)	NP40-soluble protein abundance (concentration: 10mM)
A0A087X0N3 (UniProt Q96MY1)	0.93 ± 0.019	0.967 ± 0.02	0.96 ± 0.032	0.965 ± 0.016	0.924 ± 0.085	0.896 ± 0.053
A0A087WZE9|Q15651 (UniProt Q15651)	1.07 ± 0.17	1.45 ± 0.14	1.36 ± 0.23	1.5 ± 0.4	1.44 ± 0.14	1.64 ± 0.45
A0A0A0MQX8|C9JP00 and related entries (UniProt Q9NR56)	0.929 ± 0.095	0.995 ± 0.023	0.941 ± 0.045	1.04 ± 0.055	0.94 ± 0.044	0.9449 ± 0.0073
A0A0C4DGT6|Q96AP0 and related entries (UniProt Q96AP0)	1.126 ± 0.0098	1.1 ± 0.13	1.15 ± 0.06	1.14 ± 0.046	1.13 ± 0.041	1.23 ± 0.1
A0A0C4DFU2|P04179 (UniProt P04179)	0.905 ± 0.095	0.936 ± 0.11	0.881 ± 0.092	0.897 ± 0.11	0.902 ± 0.071	0.878 ± 0.1
A0A0C4DH01|Q9NVU0 and related entries (UniProt Q9NVU0)	0.988 ± 0.095	1.01 ± 0.091	1.06 ± 0.12	1.02 ± 0.17	1.05 ± 0.12	1.05 ± 0.14
A0A0A0MSK5|Q5JTV8 and related entries (UniProt Q5JTV8)	0.945 ± 0.043	0.96 ± 0.027	0.938 ± 0.027	0.985 ± 0.029	0.934 ± 0.024	0.923 ± 0.019
A0A0A0MT60|Q5T1M5 (UniProt Q5T1M5)	0.955 ± 0.049	0.963 ± 0.046	0.954 ± 0.054	0.984 ± 0.056	0.93 ± 0.055	0.955 ± 0.06
A0A0C4DGZ0|A0A087WWE2 (UniProt P24928)	1.08 ± 0.04	1.05 ± 0.011	1.055 ± 0.0062	1.06 ± 0.048	1.08 ± 0.012	1.05 ± 0.022
A0A087WUB9|Q8WYA6 (UniProt Q8WYA6)	0.998 ± 0.012	1 ± 0.031	1.03 ± 0.035	1.09 ± 0.021	1.1 ± 0.029	1.12 ± 0.041
A0A087WZV8|A0A0G2JN66 (UniProt P01850)	0.987 ± 0.081	0.99 ± 0.043	0.956 ± 0.045	0.941 ± 0.047	0.944 ± 0.041	0.973 ± 0.044
A0A0A0MSI2|B3KPJ4 and related entries (UniProt Q8IXK0)	1.01 ± 0.026	1.1 ± 0.027	1.13 ± 0.093	1.21 ± 0.08	1.28 ± 0.09	1.42 ± 0.1
A0A0D9SEZ9|O00303 (UniProt O00303)	0.962 ± 0.072	1.04 ± 0.075	1.06 ± 0.066	1.16 ± 0.12	1.24 ± 0.045	1.33 ± 0.091
A0A087WZN1|O43837 (UniProt O43837)	0.989 ± 0.088	0.97 ± 0.043	0.933 ± 0.04	0.903 ± 0.096	0.953 ± 0.041	0.949 ± 0.039
